This is an account of results in paper PMC12040169 (PLOS Biology, 2025).

The list shows a part of the results.

This assay concerns T1, CTL2-GFP (C. trachomatis L2/434/Bu, GFP-expressing).
T1 construct: L2/434/Bu, GFP-expressing
On the set-up: species or system HeLa; Intracellular C. trachomatis growth in HeLa cells, bulk GFP fluorescence relative to DMSO. The note with it: bulk GFP, single well; 28.5 h, 10 µM; inhibitor.
In the case of `O=C(Nc1ccc(-c2nc3ccc(-c4nc5ccc(NC(=O)c6cccc7ccccc67)cc5[nH]4)cc3[nH]2)cc1)c1cccc2ccccc12` [CBK261161], the “% of control remaining” value is reported as 109.821%.
Next, `Cc1nn(C)cc1S(=O)(=O)N1CCn2cccc2C1C(C)C` (centres unmarked) [CBK282787]: 104.586%.
With `COc1cc(/C=C2\SC(=S)N(c3cccc(C(=O)O)c3)C2=O)cc([N+](=O)[O-])c1O` [CBK265281], the “% of control remaining” value stood at 108.414%.
As to `Cc1cccc(C(=O)Nc2nc3ccc(S(C)(=O)=O)cc3s2)c1` [CBK287323], the “% of control remaining” value is 128.472%.
Regarding `Cc1cccc(S(=O)(=O)N2CCN(C)CC2)c1` [CBK097893], the “% of control remaining” value came to 101.28%.
For the compound `COc1ccccc1CN1CC[C@H]2[C@@H](C1)[C@H](c1ccsc1)CN2C(=O)c1ccccc1` [CBK285617], the “% of control remaining” value turned out to be 102.822%.
Next, `Cc1cc(Cl)c(S(=O)(=O)Nc2cccnc2)cc1OCC(N)=O` [CBK266523]: 179.8%; `CCOC(=O)c1noc2nc(C)n(Cc3nc(-c4ccccc4)oc3C)c(=O)c12` [CBK294400]: 137.827%.
Take `Cn1nnc2cc(C(=O)NCCN3CCCCC3CO)ccc21` (centres unmarked) [CBK307268]: the “% of control remaining” value is listed as 133.718%.
The result for `CCC(C)NC(=O)C1(Cc2cccc(-c3ccc(OC)cc3)c2)CCOCC1` (centres unmarked) [CBK286513] reads 101.436%; that for `CS(=O)(=O)N1CC2(CCN(Cc3cccc4cccnc34)CC2)c2ccccc21` [CBK136955], 120.789%; that for `COc1cc(S(=O)(=O)N2CCCN(S(=O)(=O)c3cc(OC)c(Cl)cc3OC)CC2)c(OC)cc1Cl` [CBK266489], 136.775%.
In the case of `COc1ccc(C2CCN(CC(=O)NC3CCCC3)CC2)cc1` [CBK283565], the “% of control remaining” value was 103.241%.
The result for `COCC(C)NC(=O)CCn1ccc2ccncc21` (centres unmarked) [CBK285172] reads 124.055%; that for `Cc1nc(C)n(CC2CCCN(Cc3cn4ccccc4n3)C2)n1` (centres unmarked) [CBK304028], 133.449%.
On to `O=C(Nc1sccc1C(=O)N1CCOCC1)C(Sc1ccccc1)c1ccccc1` (centres unmarked) [CBK268165], for which the “% of control remaining” value turned out to be 95.7644%.
Next, `COc1ccc2c(C)c(CCC(=O)N(C)CC(=O)O)c(=O)oc2c1` [CBK286731]: 131.388%.
Take `CC1(C)CCCC2=C1CC(C(=O)O)C(C(=O)O)C2` (centres unmarked) [CBK272329]: the “% of control remaining” value amounted to 122.585%.
Next, `CCc1nn(CCN2CCCC2)c(=O)c2cc3sccc3n12` [CBK284075]: 154.455%; `CC(C)(C)CNc1ccc(S(=O)(=O)N2CCOC2=O)cc1` [CBK028347]: 95.5486%; `CCCc1cc(C2CCCCCN2C(=O)c2c(C)noc2C)no1` (centres unmarked) [CBK284919]: 123.74%.
Next, `O=C(CCN1C(=O)c2ccccc2C1=O)N(CCO)Cc1ccccc1` [CBK265565]: 88.0563%.
The result for `CC1=C[C@@H](CO)[C@H](C(C)C)C[C@H]1CC(=O)NCc1cccnc1` [CBK289218] reads 130.723%; that for `Oc1ccc(-n2ncc(-c3cccc(C(F)(F)F)c3)n2)cc1` [CBK112677], 67.5126%.
Consider `O=C(Nc1nc2c(s1)CCCCC2)C1CCN(S(=O)(=O)c2ccc(F)cc2)C1` (centres unmarked) [CBK285708], for which the “% of control remaining” value is given as 89.9949%.
The result for `Cc1nc(C2CC(=O)N(Cc3ccccn3)C2)n(-c2ccccc2F)n1` (centres unmarked) [CBK306895] reads 139.721%; that for `FC(F)Oc1ccc(-c2ccnc(S)n2)cc1` [CBK288385], 151.518%.
Next, `CC(=O)c1ccccc1NC(=O)c1cc2ccc(F)cc2nc1C` [CBK297929]: 105.138%; `O=[N+]([O-])c1ccc(CN2CCC(Oc3nccnc3OCc3cccnc3)CC2)cc1` [CBK083162T]: 95.5778%.
Next, `Cn1cc(C(=O)Nc2c(F)cc(F)cc2OC2CCNCC2)c2ccccc21` [CBK050328T]: 107.276%.
With `Cc1ccccc1-c1cc(C(=O)NCCCn2cc(Br)cn2)c2ccccc2n1` [CBK267758], the “% of control remaining” value is on record as 95.0924%.
The result for `CCC(C)(C)c1ccc(S(=O)(=O)N(C)CCC#N)cc1` [CBK043395] reads 95.688%.
The result for `CC(NC(=O)N(CCCN)Cc1c[nH]c(-c2ccccc2)n1)c1cccc2ccccc12` (centres unmarked) [CBK034672C] reads 57.336%.
Turning to `O=C(NCCN1CCOCC1)c1ccc(Nc2cncc(-c3ccc(O)cc3)n2)cc1` [CBK115692], the “% of control remaining” value amounted to 132.361%.
Next, `COc1ncnc(C)c1-c1cc(C)c(OC)c(C)c1` [CBK306852]: 110.23%; `Cc1ccc(S(=O)(=O)Nc2cccc(NC(=O)c3ccco3)c2)cc1C(=O)O` [CBK296638]: 135.682%; `COc1cc(C2=NS(=O)(=O)NC3=C2CCCC3)cc(OC)c1OC` [CBK010423]: 144.557%.
The result for `COc1ccc(I)cc1S(=O)(=O)NCc1ccccn1` [CBK264019] reads 125.306%; that for `CCn1cncc1CN1CCCC(c2cc3cccnc3[nH]2)C1` (centres unmarked) [CBK284993], 157.181%; that for `c1ccc(-c2nc3ccc(Oc4ccc5nc(-c6ccccn6)c(-c6ccccn6)nc5c4)cc3nc2-c2ccccn2)nc1` [CBK261964], 124.231%.
Next, `CN(C)CCCC(O)(c1ccccc1)c1ccccc1` [CBK012599]: 71.3147%.
Take `COc1cccc(CN2CCN(C(=O)C3(C)CC3(Cl)Cl)CC2)c1` (centres unmarked) [CBK268121]: the “% of control remaining” value was 107.417%.
Next, `Cc1cc(NC(=O)C(C)N(C)CCOc2ccccc2Cl)no1` (centres unmarked) [CBK304466]: 94.5381%; `CSc1ccccc1NC(=O)c1cccn(Cc2ccc(C)cc2)c1=O` [CBK294426]: 159.557%.
The result for `O=C(CSC1=NC(=O)C(Cc2ccccc2)C(=O)N1)Nc1ncccn1` (centres unmarked) [CBK263906] reads 72.1456%; that for `NCCNC(=O)c1cc2cc(OC(F)(F)F)ccc2[nH]1` [CBK107368], 132.79%.
Take `COc1cccc(CN2CC[C@@H]3[C@H](C2)[C@@H](c2ccc(F)cc2)CN3C(=O)c2ccccc2)c1` [CBK286292]: the “% of control remaining” value came to 87.255%.
Next, `O=C(c1ccc2c(c1)CCO2)N1CCC(Sc2ccc(-c3ccccc3)cc2)CC1` [CBK131953]: 67.8546%; `CN1CCC(N2CC[C@@H]3[C@H]2C(=O)NC[C@H](CCC(=O)NCc2ccccc2)N3C)CC1` [CBK289026]: 87.5494%.
The result for `COc1ccc(Cl)cc1CN(C)C(=O)c1ccc(C)[nH]c1=O` [CBK305794] reads 168.021%; that for `Cc1cccc(CCNC(=O)N2CCC(Cc3cnn(C)c3)C2)c1` (centres unmarked) [CBK305137], 83.0185%.
The result for `Cc1noc(C)c1CC(=O)NCC(C)(C)N1CCCCC1` [CBK281863] reads 106.133%.
As for `CC[C@H]1CN(C(=O)c2cccnc2)CC[C@H]1CC(=O)NCc1cccs1` [CBK288773], the “% of control remaining” value was determined as 107.289%.
The result for `O=[N+]([O-])c1ccc(Sc2ccccc2C2=NCCCN2)nc1` [CBK006747C] reads 116.844%.
Next, `O=C(Nc1ccc(S(=O)(=O)N2CCCCC2)cc1)c1ccc(CN2CCOCC2)cc1` [CBK264002]: 88.9131%; `CN1CCC(N(C)S(=O)(=O)c2ccc(C(C)(C)C)cc2)C1` (centres unmarked) [CBK059036T]: 110.618%.
The result for `CC(=O)NS(=O)(=O)c1ccc(NC(=O)/C=C/c2cccc([N+](=O)[O-])c2)cc1` [CBK300492] reads 119.599%; that for `CS(=O)(=O)NCC1CCCN(C(=O)Nc2cccc(Cl)c2)C1` (centres unmarked) [CBK305736], 130.828%.
Regarding `CC(CCc1ccc(O)cc1)NC1CCCC1` (centres unmarked) [CBK033987], the “% of control remaining” value was found to be 120.654%.
The result for `Cc1cc(C(=O)CN(C)S(=O)(=O)c2ccc(Cl)c(Cl)c2)c(C)n1C` [CBK295661] reads 109.26%; that for `COc1ccc(Oc2nccc(N3CCCN(Cc4ccc(C(F)(F)F)cc4)CC3)n2)cc1OC` [CBK084152], 76.9647%.
The result for `O=C(NCc1ccc(-c2csnn2)cc1)c1c(F)cccc1F` [CBK149310] reads 103.314%.
With `CC(=O)Nc1sc2c(c1C(=O)O)CCc1ccccc1-2` [CBK126812], the “% of control remaining” value came out at 69.7873%.
Next, `c1cc2c(cc1CNc1nnn[nH]1)OCO2` [CBK018783]: 131.126%.
The result for `CCOc1cc(NC2CCN(C(=O)C3(CCOC)CC3)CC2)ncn1` [CBK304434] reads 119.467%; that for `O=C(c1cccs1)N1CCN(S(=O)(=O)c2cccc([N+](=O)[O-])c2)CC1` [CBK266184], 113.062%; that for `O=C(NCCCc1nc2ccccc2[nH]1)c1ccccc1` [CBK268429], 134.744%.
Consider `COc1cc(CN2CCN(Cc3cccc([N+](=O)[O-])c3)CC2)c([N+](=O)[O-])cc1OC` [CBK263111], for which the “% of control remaining” value came out at 100%.
Next, `COC(=O)[C@H](NC(=O)C1CCN(C(=O)OCc2ccccc2)CC1)c1ccccc1` [CBK081466]: 124.605%; `CNC(=O)c1cnn2c(C)c(Cc3cccnc3)c(C)nc12` [CBK162165]: 130.586%; `COc1ccccc1NC(=O)Cn1cnc2sc(C(=O)NC(C)C)c(C)c2c1=O` [CBK071847]: 119.551%.
The result for `CN(C)c1ccc(C=C2CCCC3C2=NN(C(=O)CCC(=O)O)C3c2ccc(N(C)C)cc2)cc1` (centres unmarked) [CBK296065] reads 148.295%; that for `Cc1cc(C)cc(C(=O)NC(=S)Nc2sc(C)c(C)c2C#N)c1` [CBK267089], 155.347%.
The result for `Cc1nc(CCNC(=O)c2cc(C(C)C)n(C(C)(C)C)n2)cs1` [CBK304082] reads 104.993%.
Regarding `COc1cc([N+](=O)[O-])ccc1NC(=O)CS(=O)(=O)Cc1ccccc1` [CBK266704], the “% of control remaining” value is listed as 118.766%.
The result for `O=[N+]([O-])c1ccc(-c2ccc(/N=C/c3ccco3)cc2)cc1` [CBK261639] reads 107.548%; that for `N#C/C(=C\c1cn(-c2ccccc2)nc1-c1ccc(S(=O)(=O)N2CCCCC2)cc1)c1nc2ccccc2c(=O)[nH]1` [CBK266268], 126.393%.
